Some of the results follow. Small differences around the control level are noise.

Amino acid sequences for entries named in this document (tags omitted). A change or cut given only in a name is not applied to a line headed by its entry.
UniProt Q9NQR1: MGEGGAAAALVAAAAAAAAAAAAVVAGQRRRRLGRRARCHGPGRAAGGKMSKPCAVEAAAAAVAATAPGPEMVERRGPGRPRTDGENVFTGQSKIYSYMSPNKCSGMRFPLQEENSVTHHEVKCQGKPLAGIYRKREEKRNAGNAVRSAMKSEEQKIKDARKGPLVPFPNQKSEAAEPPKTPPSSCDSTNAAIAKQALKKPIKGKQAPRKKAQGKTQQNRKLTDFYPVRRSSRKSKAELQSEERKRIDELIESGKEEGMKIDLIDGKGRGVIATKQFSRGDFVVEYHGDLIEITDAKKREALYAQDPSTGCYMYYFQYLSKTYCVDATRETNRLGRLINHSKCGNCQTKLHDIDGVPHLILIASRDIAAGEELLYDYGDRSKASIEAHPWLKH
UniProt Q9NUX5: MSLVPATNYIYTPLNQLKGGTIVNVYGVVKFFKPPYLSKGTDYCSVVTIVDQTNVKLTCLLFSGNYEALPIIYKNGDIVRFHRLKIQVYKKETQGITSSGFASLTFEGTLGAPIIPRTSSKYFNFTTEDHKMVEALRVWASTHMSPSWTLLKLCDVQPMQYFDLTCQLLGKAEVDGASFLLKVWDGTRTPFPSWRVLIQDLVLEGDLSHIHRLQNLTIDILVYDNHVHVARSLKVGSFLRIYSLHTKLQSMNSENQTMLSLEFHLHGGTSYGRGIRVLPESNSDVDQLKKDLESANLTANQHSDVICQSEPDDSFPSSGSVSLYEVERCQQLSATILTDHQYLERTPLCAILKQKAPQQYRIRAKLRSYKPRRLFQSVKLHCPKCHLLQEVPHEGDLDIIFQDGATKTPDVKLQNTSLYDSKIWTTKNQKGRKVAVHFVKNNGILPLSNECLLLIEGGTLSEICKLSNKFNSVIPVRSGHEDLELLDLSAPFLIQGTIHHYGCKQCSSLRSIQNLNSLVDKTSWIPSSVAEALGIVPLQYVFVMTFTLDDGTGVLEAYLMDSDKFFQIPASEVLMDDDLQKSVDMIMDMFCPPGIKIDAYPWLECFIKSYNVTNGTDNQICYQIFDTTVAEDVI
UniProt Q9NX38: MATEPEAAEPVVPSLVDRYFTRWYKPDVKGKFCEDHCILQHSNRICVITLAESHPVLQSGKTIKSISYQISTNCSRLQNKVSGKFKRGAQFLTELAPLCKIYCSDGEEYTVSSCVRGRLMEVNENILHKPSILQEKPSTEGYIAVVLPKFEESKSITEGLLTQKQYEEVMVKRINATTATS
UniProt Q9NR31: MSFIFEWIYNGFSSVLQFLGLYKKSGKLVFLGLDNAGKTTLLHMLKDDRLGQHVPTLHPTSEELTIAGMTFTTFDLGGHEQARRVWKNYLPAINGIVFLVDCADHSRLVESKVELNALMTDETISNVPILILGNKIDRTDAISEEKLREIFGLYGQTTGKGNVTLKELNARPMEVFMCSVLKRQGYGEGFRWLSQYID
UniProt Q9NRY2: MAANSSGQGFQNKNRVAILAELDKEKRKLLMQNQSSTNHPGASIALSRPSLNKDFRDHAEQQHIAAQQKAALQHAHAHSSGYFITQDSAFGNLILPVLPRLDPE
UniProt Q9NVM9, whole entry: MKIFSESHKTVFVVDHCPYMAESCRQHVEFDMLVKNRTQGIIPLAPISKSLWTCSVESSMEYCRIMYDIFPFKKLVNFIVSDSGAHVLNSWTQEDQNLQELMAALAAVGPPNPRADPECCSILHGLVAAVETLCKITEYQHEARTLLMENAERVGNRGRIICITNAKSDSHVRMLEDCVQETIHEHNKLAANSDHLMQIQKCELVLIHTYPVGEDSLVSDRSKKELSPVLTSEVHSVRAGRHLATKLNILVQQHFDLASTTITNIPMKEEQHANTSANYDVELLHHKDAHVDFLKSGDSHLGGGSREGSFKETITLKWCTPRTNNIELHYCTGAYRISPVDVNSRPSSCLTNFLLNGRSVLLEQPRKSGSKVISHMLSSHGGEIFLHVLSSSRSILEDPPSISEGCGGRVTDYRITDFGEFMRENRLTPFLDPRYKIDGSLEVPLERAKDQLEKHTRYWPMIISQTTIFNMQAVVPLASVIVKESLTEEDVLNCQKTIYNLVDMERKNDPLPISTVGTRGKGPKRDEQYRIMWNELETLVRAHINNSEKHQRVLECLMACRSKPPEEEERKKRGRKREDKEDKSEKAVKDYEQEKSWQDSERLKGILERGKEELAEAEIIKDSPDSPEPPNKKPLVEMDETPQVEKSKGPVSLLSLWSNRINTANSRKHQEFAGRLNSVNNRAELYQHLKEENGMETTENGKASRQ
UniProt Q9NRK6: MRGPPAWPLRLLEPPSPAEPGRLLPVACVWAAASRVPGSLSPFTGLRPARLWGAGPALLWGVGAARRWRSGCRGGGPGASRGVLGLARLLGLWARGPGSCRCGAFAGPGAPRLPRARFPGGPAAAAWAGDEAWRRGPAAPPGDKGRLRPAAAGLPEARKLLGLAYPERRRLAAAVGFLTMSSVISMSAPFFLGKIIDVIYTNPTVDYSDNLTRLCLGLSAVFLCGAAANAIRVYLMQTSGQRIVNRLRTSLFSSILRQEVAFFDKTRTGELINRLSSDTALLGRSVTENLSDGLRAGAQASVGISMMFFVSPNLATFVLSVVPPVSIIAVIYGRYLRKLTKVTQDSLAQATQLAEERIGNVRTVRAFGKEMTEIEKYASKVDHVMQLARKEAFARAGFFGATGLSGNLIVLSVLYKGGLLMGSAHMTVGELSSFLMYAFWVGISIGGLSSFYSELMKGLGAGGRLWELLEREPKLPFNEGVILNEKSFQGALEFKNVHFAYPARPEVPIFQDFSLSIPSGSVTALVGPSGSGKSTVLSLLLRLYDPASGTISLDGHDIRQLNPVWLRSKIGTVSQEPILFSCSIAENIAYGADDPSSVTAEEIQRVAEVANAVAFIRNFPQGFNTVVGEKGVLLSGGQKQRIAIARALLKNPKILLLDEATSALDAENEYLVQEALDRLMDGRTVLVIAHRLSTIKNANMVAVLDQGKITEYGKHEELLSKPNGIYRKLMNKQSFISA
UniProt Q9NQZ5: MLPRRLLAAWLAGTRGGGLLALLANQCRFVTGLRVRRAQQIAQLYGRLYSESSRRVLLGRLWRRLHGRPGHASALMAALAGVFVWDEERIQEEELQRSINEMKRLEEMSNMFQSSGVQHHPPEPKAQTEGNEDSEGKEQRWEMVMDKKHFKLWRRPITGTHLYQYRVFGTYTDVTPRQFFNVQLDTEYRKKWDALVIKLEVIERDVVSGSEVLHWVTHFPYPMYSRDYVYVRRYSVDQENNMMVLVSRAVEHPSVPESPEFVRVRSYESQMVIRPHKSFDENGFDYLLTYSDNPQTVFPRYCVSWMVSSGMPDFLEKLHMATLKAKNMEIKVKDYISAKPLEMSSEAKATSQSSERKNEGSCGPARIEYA
UniProt Q9NWS0, whole entry: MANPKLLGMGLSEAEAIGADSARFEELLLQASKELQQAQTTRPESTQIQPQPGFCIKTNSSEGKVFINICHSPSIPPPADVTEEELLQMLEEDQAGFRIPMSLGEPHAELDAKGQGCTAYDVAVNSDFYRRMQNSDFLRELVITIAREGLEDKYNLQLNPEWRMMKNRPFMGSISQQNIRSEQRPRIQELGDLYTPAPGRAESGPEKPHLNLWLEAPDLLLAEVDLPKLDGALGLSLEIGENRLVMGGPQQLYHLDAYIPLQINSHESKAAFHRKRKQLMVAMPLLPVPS
UniProt Q9NY97: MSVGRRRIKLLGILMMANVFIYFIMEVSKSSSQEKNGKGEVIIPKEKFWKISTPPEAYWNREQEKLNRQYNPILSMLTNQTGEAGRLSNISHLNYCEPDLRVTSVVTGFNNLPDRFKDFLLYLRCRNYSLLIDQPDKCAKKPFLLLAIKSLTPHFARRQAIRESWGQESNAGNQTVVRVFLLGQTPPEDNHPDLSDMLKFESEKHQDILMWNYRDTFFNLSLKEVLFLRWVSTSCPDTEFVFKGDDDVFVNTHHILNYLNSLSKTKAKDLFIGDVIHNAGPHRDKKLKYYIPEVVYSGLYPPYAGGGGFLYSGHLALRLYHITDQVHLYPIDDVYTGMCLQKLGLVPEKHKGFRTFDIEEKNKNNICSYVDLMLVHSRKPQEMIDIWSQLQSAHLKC
UniProt Q9NTN3, whole entry, looked up: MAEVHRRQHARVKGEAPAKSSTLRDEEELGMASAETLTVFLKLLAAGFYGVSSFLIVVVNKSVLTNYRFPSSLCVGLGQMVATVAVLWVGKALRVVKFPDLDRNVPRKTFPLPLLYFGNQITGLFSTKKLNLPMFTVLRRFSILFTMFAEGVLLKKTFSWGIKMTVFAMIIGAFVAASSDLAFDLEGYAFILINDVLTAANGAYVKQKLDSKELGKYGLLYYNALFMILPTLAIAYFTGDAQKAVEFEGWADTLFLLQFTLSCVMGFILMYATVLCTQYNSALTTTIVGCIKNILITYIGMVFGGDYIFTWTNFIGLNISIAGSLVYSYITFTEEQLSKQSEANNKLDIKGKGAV
UniProt Q9NSD4: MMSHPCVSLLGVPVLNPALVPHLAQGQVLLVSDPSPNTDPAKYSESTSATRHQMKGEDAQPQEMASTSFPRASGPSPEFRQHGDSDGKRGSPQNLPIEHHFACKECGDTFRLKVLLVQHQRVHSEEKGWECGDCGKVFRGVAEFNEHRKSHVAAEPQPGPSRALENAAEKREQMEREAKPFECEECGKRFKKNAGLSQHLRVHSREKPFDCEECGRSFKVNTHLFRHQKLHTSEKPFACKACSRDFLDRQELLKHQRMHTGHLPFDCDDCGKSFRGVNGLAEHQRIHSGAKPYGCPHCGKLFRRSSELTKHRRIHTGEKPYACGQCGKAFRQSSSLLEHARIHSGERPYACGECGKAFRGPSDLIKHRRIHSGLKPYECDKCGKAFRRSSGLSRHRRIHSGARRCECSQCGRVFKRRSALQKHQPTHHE
UniProt Q9NXC5: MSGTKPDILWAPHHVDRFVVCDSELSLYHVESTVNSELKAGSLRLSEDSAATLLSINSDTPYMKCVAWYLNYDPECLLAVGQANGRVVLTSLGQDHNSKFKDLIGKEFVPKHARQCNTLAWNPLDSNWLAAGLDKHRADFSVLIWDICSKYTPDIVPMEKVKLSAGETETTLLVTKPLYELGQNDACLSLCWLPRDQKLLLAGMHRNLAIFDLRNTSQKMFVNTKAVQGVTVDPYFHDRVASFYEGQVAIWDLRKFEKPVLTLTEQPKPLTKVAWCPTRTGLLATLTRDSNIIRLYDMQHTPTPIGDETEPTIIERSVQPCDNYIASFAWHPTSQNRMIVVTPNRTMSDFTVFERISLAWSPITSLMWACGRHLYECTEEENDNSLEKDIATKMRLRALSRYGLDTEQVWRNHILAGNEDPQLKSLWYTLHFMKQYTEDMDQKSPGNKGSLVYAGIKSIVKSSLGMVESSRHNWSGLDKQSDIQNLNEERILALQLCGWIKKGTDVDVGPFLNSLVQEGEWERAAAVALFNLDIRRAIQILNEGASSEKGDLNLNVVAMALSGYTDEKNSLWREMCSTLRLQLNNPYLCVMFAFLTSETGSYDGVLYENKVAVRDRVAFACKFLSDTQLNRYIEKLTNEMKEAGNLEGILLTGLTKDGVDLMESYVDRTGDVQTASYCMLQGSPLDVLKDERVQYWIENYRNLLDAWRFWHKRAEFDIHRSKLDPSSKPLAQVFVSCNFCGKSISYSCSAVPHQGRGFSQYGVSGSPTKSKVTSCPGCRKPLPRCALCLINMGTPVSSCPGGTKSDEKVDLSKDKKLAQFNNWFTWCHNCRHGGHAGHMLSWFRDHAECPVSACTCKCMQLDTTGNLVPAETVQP
UniProt Q9NSY0: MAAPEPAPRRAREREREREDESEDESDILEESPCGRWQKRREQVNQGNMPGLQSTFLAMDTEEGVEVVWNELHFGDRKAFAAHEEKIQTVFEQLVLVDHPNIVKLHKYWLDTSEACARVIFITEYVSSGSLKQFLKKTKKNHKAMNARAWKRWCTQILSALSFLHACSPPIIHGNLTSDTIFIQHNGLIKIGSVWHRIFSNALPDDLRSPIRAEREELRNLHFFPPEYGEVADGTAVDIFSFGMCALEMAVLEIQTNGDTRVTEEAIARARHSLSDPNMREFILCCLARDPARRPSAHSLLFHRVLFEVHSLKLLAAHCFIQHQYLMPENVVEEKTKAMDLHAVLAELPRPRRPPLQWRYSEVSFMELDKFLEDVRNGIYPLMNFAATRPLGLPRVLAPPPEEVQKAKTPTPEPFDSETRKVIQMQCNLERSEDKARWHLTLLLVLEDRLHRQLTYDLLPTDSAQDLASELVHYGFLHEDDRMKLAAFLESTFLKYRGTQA
UniProt Q9NT62, whole entry: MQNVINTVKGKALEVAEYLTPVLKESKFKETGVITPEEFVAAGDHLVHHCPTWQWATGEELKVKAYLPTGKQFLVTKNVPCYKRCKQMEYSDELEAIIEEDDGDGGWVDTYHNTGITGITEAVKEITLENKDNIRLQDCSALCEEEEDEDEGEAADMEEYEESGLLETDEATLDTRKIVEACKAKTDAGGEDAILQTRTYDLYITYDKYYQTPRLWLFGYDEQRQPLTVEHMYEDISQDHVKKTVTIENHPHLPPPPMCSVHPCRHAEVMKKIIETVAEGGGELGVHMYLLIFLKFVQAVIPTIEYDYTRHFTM

Compound in the assay: CN[C@@H]1C[C@H]2O[C@@](C)([C@@H]1OC)n1c3ccccc3c3c4c(c5c6ccccc6n2c5c31)C(=O)NC4 [staurosporine]
Description: log2 fold change of tryptic peptide abundance, ligand vs vehicle (limited proteolysis) (log2 ratio); higher = more trypsin-susceptible (destabilized). The conditions noted are these: ligand concentration: 20 uM; sample: K562 cleared lysate; digestion: 4 min, 22 C (HT-PELSA RT4min, Orbitrap Astral).
Turning to “KMT5A (peptide sequence: FPLQEENSVTHHEVK, peptide start residue: 109) (UniProt Q9NQR1)”, the log2 fold change is -0.253.
The value for “POT1 (peptide sequence: LQNTSLYDSK, peptide start residue: 413) (UniProt Q9NUX5)” was -0.333.
Turning to “UniProt Q9NW64 (peptide sequence: GEECPYR, peptide start residue: 176)”, the log2 fold change turned out to be 0.603.
The value for “TMEM161A (peptide sequence: WANGLSEEKPLSVPR, peptide start residue: 64) (UniProt Q9NX61)” was 0.0925; that for “ASB6 (peptide sequence: LQLPENFDIHPVGSLAEK, peptide start residue: 340) (UniProt Q9NWX5)” was 0.239.
The figure for “POLR3B (peptide sequence: FHYGTAFGGSK, peptide start residue: 958) (UniProt Q9NW08)” is 0.692.
Take “FANCL (peptide sequence: MLLEVALK, peptide start residue: 89) (UniProt Q9NW38)”: the log2 fold change is -0.178.
On to “PNO1 (peptide sequence: RPVFPPLCGDGLLSGKEETR, peptide start residue: 57) (UniProt Q9NRX1)”, for which the log2 fold change was -0.148.
The value for “UniProt Q9NX38 (peptide sequence: QYEEVMVKR, peptide start residue: 165)” was -0.861; that for “SAR1A (peptide sequence: EIFGLYGQTTGKGNVTLK, peptide start residue: 149) (UniProt Q9NR31)” was -0.757.
Turning to “UniProt Q9NRY2 (peptide sequence: DFRDHAEQQHIAAQQK, peptide start residue: 54)”, the log2 fold change is -0.566.
The figure for “UniProt Q9NVM9 (peptide sequence: TNNIELHYCTGAYR, peptide start residue: 323)” is -0.407; for “ABCB10 (peptide sequence: STVLSLLLR, peptide start residue: 534) (UniProt Q9NRK6)” it is 0.368.
In the case of “CISH (peptide sequence: DSTHPSYLFTLSVK, peptide start residue: 108) (UniProt Q9NSE2)”, the log2 fold change was -0.127.
The figure for “STARD7 (peptide sequence: QFFNVQLDTEYRK, peptide start residue: 178) (UniProt Q9NQZ5)” is -0.192; for “STAU2 (peptide sequence: KEKEPDYVLLSER, peptide start residue: 320) (UniProt Q9NUL3)” it is 0.211.
For “PIH1D1 (peptide sequence: RMQNSDFLR, peptide start residue: 131) (UniProt Q9NWS0)”, the log2 fold change was 0.417.
The value for “UniProt Q9NVR5 (peptide sequence: VPKPGEQDLSR, peptide start residue: 432)” was 0.616; that for “B3GNT2 (peptide sequence: DLFIGDVIHNAGPHR, peptide start residue: 269) (UniProt Q9NY97)” was 0.297.
For “SLC35D1 (peptide sequence: QKLDSKELGK, peptide start residue: 207) (UniProt Q9NTN3)”, the log2 fold change is 0.105.
Turning to “UniProt Q9NYU1 (peptide sequence: MAQLLVVLGK, peptide start residue: 981)”, the log2 fold change amounted to 0.471.
The figure for “ALKBH4 (peptide sequence: RVCVTFR, peptide start residue: 265) (UniProt Q9NXW9)” is 0.611; for “AVEN (peptide sequence: SVAAGCPVLLGK, peptide start residue: 246) (UniProt Q9NQS1)” it is 0.147; for “BIRC6 (peptide sequence: VITDPSLSK, peptide start residue: 4012) (UniProt Q9NR09)” it is -0.176.
The value for “UniProt Q9NRH1 (peptide sequence: EWQSNMQR, peptide start residue: 33)” was -0.203; that for “ZNF275 (peptide sequence: VLLVQHQR, peptide start residue: 114) (UniProt Q9NSD4)” was 0.524.
On to “MIOS (peptide sequence: SSLGMVESSR, peptide start residue: 462) (UniProt Q9NXC5)”, for which the log2 fold change is -0.123.
The value for “SIRT5 (peptide sequence: SPICPALSGK, peptide start residue: 178) (UniProt Q9NXA8)” was -0.43.
The value for “NRBP2 (peptide sequence: HSLSDPNMR, peptide start residue: 272) (UniProt Q9NSY0)” was 0.134.
For the target “ATG3 (peptide sequence: IVEACKAK, peptide start residue: 178) (UniProt Q9NT62)”, the log2 fold change is 0.518.
The figure for “RBM28 (peptide sequence: GQSLGYAFAEFQEHEHALKALR, peptide start residue: 537) (UniProt Q9NW13)” is 0.382; for “UniProt Q9NV72 (peptide sequence: VFNQQSNLAR, peptide start residue: 334)” it is 0.5; for “LATS2 (peptide sequence: FFMEQHVENVIK, peptide start residue: 604) (UniProt Q9NRM7)” it is -0.558.
The figure for “DDX21 (peptide sequence: LHGELQDR, peptide start residue: 248) (UniProt Q9NR30)” is 0.201; for “UniProt Q9NXE8 (peptide sequence: YAEDVGAVK, peptide start residue: 56)” it is 0.281; for “ARMC1 (peptide sequence: GELGMMLSLQNVIQK, peptide start residue: 78) (UniProt Q9NVT9)” it is -0.362.
In the case of “KIF13B (peptide sequence: LKEGSNINK, peptide start residue: 270) (UniProt Q9NQT8)”, the log2 fold change turned out to be 0.386.
